{
  "source": "paper PMC7819943",
  "about": "“Rice protein-binding microarrays: a tool to detect cis-acting elements near promoter regions in rice”",
  "note": "This is one part of the list.",
  "data": [
    {"molecular_target": "T1, OsSMF1 (Oryza sativa, UniProt Q6ZLB0 1-436)", "T1 sequence": "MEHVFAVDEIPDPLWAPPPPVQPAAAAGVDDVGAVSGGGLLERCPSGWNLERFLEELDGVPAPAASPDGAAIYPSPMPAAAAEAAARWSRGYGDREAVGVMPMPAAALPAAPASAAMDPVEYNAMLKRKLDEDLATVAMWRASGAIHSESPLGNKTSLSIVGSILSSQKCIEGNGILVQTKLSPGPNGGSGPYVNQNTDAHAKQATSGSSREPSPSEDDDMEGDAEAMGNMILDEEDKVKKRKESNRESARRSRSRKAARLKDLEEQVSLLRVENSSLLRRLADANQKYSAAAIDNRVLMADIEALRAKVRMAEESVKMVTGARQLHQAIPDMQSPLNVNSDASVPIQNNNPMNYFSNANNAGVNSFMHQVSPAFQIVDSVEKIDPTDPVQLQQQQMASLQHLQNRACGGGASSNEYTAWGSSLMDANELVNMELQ", "assay": "protein-binding microarray (RPBM); PBS, 2% BSA, 51.3 ng/ul salmon testes DNA, 50 uM zinc acetate, 200 nM TF, 25 C, 1 h; high values mean tight binding", "settings": "protein: recombinant; tags: N-terminal polyhistidine and DsRed monomer fusion (pET32a); chain copies: 2; label: CyDye5-dUTP incorporated in the synthesized complementary strand; 3' TTTTT single-stranded linker to array surface; dsDNA, one strand shown", "in_short": "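Transcription factors were each fused at the N-terminus to a polyhistidine tag plus DsRed and expressed in E. coli BL21-CodonPlus before Ni–NTA purification. Binding to a double-stranded custom Agilent array was carried out with 200 nM protein at 25 °C for 1 h in PBS, 2% BSA, salmon testes DNA and 50 µM zinc acetate. The binding signal is per-feature fluorescence intensity, in arbitrary units, on an Axon 4000B scanner.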", "values": [
      {"sequence": "GCATATATGCTTGCGTGCGCGCTTCATGCATGTCAATAACCGGAGTCACCTAGTGCAG", "binding signal": "3270 fluorescence intensity (a.u.)"},
      {"sequence": "TGAAGGCGGAGTAGGAGTTGTCCGCGACCACGCGCCTGAACGGAGTCACCTAGTGCAG", "binding signal": "19700 fluorescence intensity (a.u.)"},
      {"sequence": "CATGACGAGGATTAGGATCCCTGAGCTGGTGAGGGAGGCGCGGAGTCACCTAGTGCAG", "binding signal": "11500 fluorescence intensity (a.u.)"},
      {"sequence": "CTTCACGTCGACGCCGTCGGGCGCGCCCTGGACGAACACCCGGAGTCACCTAGTGCAG", "binding signal": "3310 fluorescence intensity (a.u.)"},
      {"sequence": "TGCCGGCCTCCACGTCGCCCTCCGCCTCCCTCCCCGCATTCGGAGTCACCTAGTGCAG", "binding signal": "7630 fluorescence intensity (a.u.)"},
      {"sequence": "TTAAACTACAACCATATGTTCAGTCTTCAGTGGCTGTCAGCGGAGTCACCTAGTGCAG", "binding signal": "3420 fluorescence intensity (a.u.)"},
      {"sequence": "CAGTATGGTGACATAGCCGTGGATGACACGGCATTCGTATCGGAGTCACCTAGTGCAG", "binding signal": "10400 fluorescence intensity (a.u.)"},
      {"sequence": "TGGTTGATTTCTATCCCTCACTGAATTGTCGACTTCTTGCCGGAGTCACCTAGTGCAG", "binding signal": "3840 fluorescence intensity (a.u.)"},
      {"sequence": "GCGGAGGTCAAGCGCCACGTAGAAGGGTCGACGTGGGGAGCGGAGTCACCTAGTGCAG", "binding signal": "7110 fluorescence intensity (a.u.)"},
      {"sequence": "GGACCTTGATGTCAAGGTACTTCCTCCGTTCTAAAATATACGGAGTCACCTAGTGCAG", "binding signal": "8540 fluorescence intensity (a.u.)"},
      {"sequence": "CTCCTCTGCGCTGCCGTTCCCCGTTATTCGCCAACGCTTCCGGAGTCACCTAGTGCAG", "binding signal": "3390 fluorescence intensity (a.u.)"},
      {"sequence": "CCAAACCATACAACGCACAATTAATTAGGGGAAACTGGACCGGAGTCACCTAGTGCAG", "binding signal": "11100 fluorescence intensity (a.u.)"},
      {"sequence": "ACTTGCAGAGTTGCAGTCGCGTGCGTCACGCGGCGAGGTGCGGAGTCACCTAGTGCAG", "binding signal": "5960 fluorescence intensity (a.u.)"},
      {"sequence": "ACTCTATGTGCTAATGTCATACCATCGTCAACACGATAGCCGGAGTCACCTAGTGCAG", "binding signal": "3920 fluorescence intensity (a.u.)"},
      {"sequence": "TGGATTGTTACATGTCTAAATTCATAATACCAGGATATATCGGAGTCACCTAGTGCAG", "binding signal": "21600 fluorescence intensity (a.u.)"},
      {"sequence": "CCACCGCGCAACGGATCGGCACCCGTTCCACGCGTCTACGCGGAGTCACCTAGTGCAG", "binding signal": "4160 fluorescence intensity (a.u.)"},
      {"sequence": "ACATGTCATAGACACATGTGGGTCCACATGTCATTGAGATCGGAGTCACCTAGTGCAG", "binding signal": "5720 fluorescence intensity (a.u.)"},
      {"sequence": "AACGGGGAGTAAATATTTTCCTAACAATAACGGAGACAAACGGAGTCACCTAGTGCAG", "binding signal": "6780 fluorescence intensity (a.u.)"},
      {"sequence": "GGCAACTAGAGACGCGACGGTTGGGCGTTACCAAGGAGCGCGGAGTCACCTAGTGCAG", "binding signal": "4180 fluorescence intensity (a.u.)"},
      {"sequence": "TGGATCAACCGCCTAATCATCGTTGAGTAAGGCACTGCAACGGAGTCACCTAGTGCAG", "binding signal": "3980 fluorescence intensity (a.u.)"},
      {"sequence": "CCTTGCTCCGTCCTGGTTTTCCTGTGCGCTGGATCATCCGCGGAGTCACCTAGTGCAG", "binding signal": "3150 fluorescence intensity (a.u.)"},
      {"sequence": "ACAACCTGGCCCCACACCCAAACCCGGGCCCACGTGTCATCGGAGTCACCTAGTGCAG", "binding signal": "15500 fluorescence intensity (a.u.)"},
      {"sequence": "GATTGGCAGCGCACTCGGTCAGCGAGTTACCGATCTTACACGGAGTCACCTAGTGCAG", "binding signal": "6100 fluorescence intensity (a.u.)"},
      {"sequence": "GAGGACATGCATGTGCAAGGGGAGCAGGTGGGGTAAAATGCGGAGTCACCTAGTGCAG", "binding signal": "45500 fluorescence intensity (a.u.)"},
      {"sequence": "TTCTATACTACATTGAACTCCCCAAATTTAAGTATAGGCACGGAGTCACCTAGTGCAG", "binding signal": "3160 fluorescence intensity (a.u.)"},
      {"sequence": "AAAGAAAGCCCAAAGCAAGTAACTGCGCCATGACTAACACCGGAGTCACCTAGTGCAG", "binding signal": "3540 fluorescence intensity (a.u.)"},
      {"sequence": "ATTTCTGGTAGGACGGCCTGTGGCTTGCGTGTCTATGTGACGGAGTCACCTAGTGCAG", "binding signal": "4600 fluorescence intensity (a.u.)"},
      {"sequence": "TTAAATCAATAATTAAATATATTTTCATAATAAATTTGTGCGGAGTCACCTAGTGCAG", "binding signal": "31000 fluorescence intensity (a.u.)"},
      {"sequence": "TAACAAGCCTACCTACATGCATGCATCTATGCATATATATCGGAGTCACCTAGTGCAG", "binding signal": "3540 fluorescence intensity (a.u.)"},
      {"sequence": "ACTCCCCTCCCCGCCACGTCGCCATTCTTCCCGCTCCTGACGGAGTCACCTAGTGCAG", "binding signal": "11800 fluorescence intensity (a.u.)"},
      {"sequence": "ATGTTTTAGTCACCATCTATATTATGTTAATGGAGTTTTCCGGAGTCACCTAGTGCAG", "binding signal": "3340 fluorescence intensity (a.u.)"},
      {"sequence": "GCCGTGCACGTTCTACGGCTCGCCACTTCAGACTCCATCTCGGAGTCACCTAGTGCAG", "binding signal": "3200 fluorescence intensity (a.u.)"},
      {"sequence": "TTTTAAGGAAAATATATTATCAGCACCATATAGCTGGATGCGGAGTCACCTAGTGCAG", "binding signal": "4700 fluorescence intensity (a.u.)"},
      {"sequence": "TATTTGTGGACTGTTCCCAATGACATTTCTGGATGGCTTTCGGAGTCACCTAGTGCAG", "binding signal": "3250 fluorescence intensity (a.u.)"},
      {"sequence": "ATTATGTAGCATAGTGGCAGATCACTAATCTTTGTTGCTCCGGAGTCACCTAGTGCAG", "binding signal": "3370 fluorescence intensity (a.u.)"},
      {"sequence": "CAAAATACTCAAGCGGCGGCATTGTCATCTTCCTCCTCCCCGGAGTCACCTAGTGCAG", "binding signal": "3550 fluorescence intensity (a.u.)"},
      {"sequence": "GTAAGGCGTCCATGTGATGTCATTGTTGATGGGCAAGTGCCGGAGTCACCTAGTGCAG", "binding signal": "6430 fluorescence intensity (a.u.)"},
      {"sequence": "GTCGATTATTAAACTCTCCCTAATTGACCTTAGTGTTGTCCGGAGTCACCTAGTGCAG", "binding signal": "16900 fluorescence intensity (a.u.)"},
      {"sequence": "CCGTGATTGAGGCCCATCCAAATGTCTCTGGGCCATCCGCCGGAGTCACCTAGTGCAG", "binding signal": "17600 fluorescence intensity (a.u.)"},
      {"sequence": "GCTTGCCGGCGCTCTACGAGGAGGCGGAAAGGCTCGTGGGCGGAGTCACCTAGTGCAG", "binding signal": "3470 fluorescence intensity (a.u.)"},
      {"sequence": "TTCAATCCTAGCGCCACGTCAACATCACATATTAGGTCACCGGAGTCACCTAGTGCAG", "binding signal": "19600 fluorescence intensity (a.u.)"},
      {"sequence": "CAGCCTGAACCGTAAACAAATGGCACCCTAAATGACACATCGGAGTCACCTAGTGCAG", "binding signal": "3510 fluorescence intensity (a.u.)"},
      {"sequence": "TTAATTTGTTTTCACGTATGGTTGTGTTGCCCGCTTGGAACGGAGTCACCTAGTGCAG", "binding signal": "6280 fluorescence intensity (a.u.)"},
      {"sequence": "TGTGTTTTGCGGTTCTCTTGCCTCTGACTCTGAGACTGGACGGAGTCACCTAGTGCAG", "binding signal": "3780 fluorescence intensity (a.u.)"},
      {"sequence": "GAAACACCGAGCACGATGCCACCGTGCGCGTGTGCCGTGCCGGAGTCACCTAGTGCAG", "binding signal": "3160 fluorescence intensity (a.u.)"},
      {"sequence": "ACACACATCCGTTGGTTGGTTTGAATCCTTGCATGTGCATCGGAGTCACCTAGTGCAG", "binding signal": "22300 fluorescence intensity (a.u.)"},
      {"sequence": "TAATCAAACACTTATCCATGTGGCAAATCTATGGGCCTCCCGGAGTCACCTAGTGCAG", "binding signal": "3390 fluorescence intensity (a.u.)"},
      {"sequence": "TCATTCGTAAGGCCGTCAGCAATATCTTCTATAGGTTCGTCGGAGTCACCTAGTGCAG", "binding signal": "3700 fluorescence intensity (a.u.)"},
      {"sequence": "GTCCACGATTAATCCACGTACATACCAGGTGATTGTGCAACGGAGTCACCTAGTGCAG", "binding signal": "3950 fluorescence intensity (a.u.)"},
      {"sequence": "GTTAGCGCATGGCAGCCACGTGGTGGCACGGGGACAGCGCCGGAGTCACCTAGTGCAG", "binding signal": "8490 fluorescence intensity (a.u.)"},
      {"sequence": "ATTGCCGTGAGCCCGTGACTACTCTTTACTCTTTCTTTTCCGGAGTCACCTAGTGCAG", "binding signal": "3380 fluorescence intensity (a.u.)"},
      {"sequence": "GGTGGCCGGGAAGGAGAGGCACGGGATCGACGATCTGGTGCGGAGTCACCTAGTGCAG", "binding signal": "14700 fluorescence intensity (a.u.)"},
      {"sequence": "TGTGGGAGTATCTTCAACAACGCTATCAACAGAGCAGTGCCGGAGTCACCTAGTGCAG", "binding signal": "7820 fluorescence intensity (a.u.)"},
      {"sequence": "ACTCTTAATTAATGAGTTGATGATGTTGACTAAATTAAGGCGGAGTCACCTAGTGCAG", "binding signal": "3340 fluorescence intensity (a.u.)"}
    ]}
  ]
}
